The results in this text go back to article PMC5812214.

Amino acid sequences for entries named in this document (tags omitted).
UniProt P14649: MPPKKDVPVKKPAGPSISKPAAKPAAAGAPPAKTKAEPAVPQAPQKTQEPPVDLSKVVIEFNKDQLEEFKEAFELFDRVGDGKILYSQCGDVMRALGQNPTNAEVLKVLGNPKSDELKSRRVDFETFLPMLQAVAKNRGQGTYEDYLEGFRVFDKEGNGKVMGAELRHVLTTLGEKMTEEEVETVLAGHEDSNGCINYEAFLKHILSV
UniProt Q00987: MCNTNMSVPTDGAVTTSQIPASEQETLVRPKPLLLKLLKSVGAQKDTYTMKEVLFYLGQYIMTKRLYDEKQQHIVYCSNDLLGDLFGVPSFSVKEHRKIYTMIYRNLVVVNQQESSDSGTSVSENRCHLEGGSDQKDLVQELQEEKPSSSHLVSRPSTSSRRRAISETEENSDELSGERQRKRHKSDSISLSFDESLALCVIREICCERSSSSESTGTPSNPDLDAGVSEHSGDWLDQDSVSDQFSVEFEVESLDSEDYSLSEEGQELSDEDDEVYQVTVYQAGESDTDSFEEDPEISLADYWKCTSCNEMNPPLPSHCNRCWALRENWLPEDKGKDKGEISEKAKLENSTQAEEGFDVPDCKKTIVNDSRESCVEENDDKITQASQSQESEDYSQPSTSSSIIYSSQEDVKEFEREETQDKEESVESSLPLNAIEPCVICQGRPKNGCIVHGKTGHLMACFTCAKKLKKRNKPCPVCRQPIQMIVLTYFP

In experiment [1] the target is 3FLAG-MYL6B (human) (UniProt P14649). The experiment can be described thus: co-IP; lysate of Huh7 cells transfected with 3FLAG-vector or 3FLAG-MYL6B, anti-FLAG Agarose Affinity Gel, immunoblot with antibody against MYL6B, MDM2 or p53. (In western blotting, separated proteins are transferred to a membrane and probed.)
For experiment [2], the target named is myc3-MDM2 (pCMV-myc3-HDM2) (human) (UniProt Q00987). Description: co-IP; lysate of Huh7 cells transfected with myc3-vector or myc3-MDM2, anti-myc agarose, immunoblot with antibody against MDM2 or MYL6B.
Experiment [3] addresses MDM2, endogenous (human (endogenous in Huh7)) (UniProt Q00987). Description: co-IP; endogenous proteins; Huh7 lysate with anti-MDM2, anti-p53 or normal rabbit IgG at 4 °C overnight, Protein A/G PLUS-Agarose 1 h, eluted with 0.1 M glycine-HCl pH 2.2, immunoblot with antibody against MYL6B.

No constants are given. Whether binding was seen depends on the method and setting. Binding seen in cells or lysates may run through a third protein. Some results given as binding are weak or reduced against the parent protein; the word gives no strength.

As to “MDM2, endogenous (from UniProt Q00987 1-491) (enzyme)”, the binding result in experiment [1] is given as “binds”.

Regarding “Myosin Light Chain 6B (MYL6B), endogenous (from UniProt P14649 1-208)”, the binding entry in experiment [2] and in experiment [3] was “binds” in each case.
